# Library screening results

Sequences of proteins named here, by UniProt entry; tags and fusion partners are left off.
UniProt E9BF75, entry or part of it: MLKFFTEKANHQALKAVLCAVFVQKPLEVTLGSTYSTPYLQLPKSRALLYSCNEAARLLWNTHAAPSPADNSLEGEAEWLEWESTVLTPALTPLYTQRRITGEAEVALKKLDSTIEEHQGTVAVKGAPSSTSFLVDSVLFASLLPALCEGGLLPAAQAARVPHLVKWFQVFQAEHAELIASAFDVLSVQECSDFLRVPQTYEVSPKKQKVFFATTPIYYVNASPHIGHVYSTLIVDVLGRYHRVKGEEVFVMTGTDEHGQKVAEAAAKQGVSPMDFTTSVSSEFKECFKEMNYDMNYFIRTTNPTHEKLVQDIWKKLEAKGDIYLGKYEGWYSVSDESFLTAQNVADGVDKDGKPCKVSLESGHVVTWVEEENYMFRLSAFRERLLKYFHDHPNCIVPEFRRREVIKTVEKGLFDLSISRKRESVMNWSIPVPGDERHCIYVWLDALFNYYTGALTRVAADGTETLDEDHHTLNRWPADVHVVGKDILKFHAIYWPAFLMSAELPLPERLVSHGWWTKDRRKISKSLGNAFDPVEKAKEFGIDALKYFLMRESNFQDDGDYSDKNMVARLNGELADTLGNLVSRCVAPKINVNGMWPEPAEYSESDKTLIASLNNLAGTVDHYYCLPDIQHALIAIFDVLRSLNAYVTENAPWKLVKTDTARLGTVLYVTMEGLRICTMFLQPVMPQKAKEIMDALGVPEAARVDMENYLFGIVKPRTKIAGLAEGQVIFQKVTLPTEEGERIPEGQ

Mtb heat-shock: 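Assay on Mycobacterium tuberculosis, filed only as a heat shock assay from Cornell; the read-out is not stated. The concentration is filed as 10 mM, unlikely as a test dose, so the dose is not known. The record gives no direction; compounds that gave an IC50 in retests scored well above the rest, so higher reads as stronger inhibition. Size under these conditions: about 69,000 compounds, about 930 of them at 50% or above in at least one test.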
LdMetRS: 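Methionyl-tRNA synthetase (putative), Leishmania donovani (UniProt E9BF75). Primary screen of methionyl-tRNA synthetase; the read-out is not stated. The test concentration is not given. Values are per cent inhibition. Of about 68,000 compounds tested this way, about 24 (0.035%) reached 50% or more in at least one test.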
Mtb growth Cornell: 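Whole-cell assay for inhibitors of Mycobacterium tuberculosis growth, labelled Cornell in the record; the read-out is not stated. The concentration is filed as 10 mM, unlikely as a test dose, so the dose is not known. Higher means stronger inhibition (inferred from two other growth screens of the library). About 53,000 compounds were tested under these conditions; 1.7% (about 900) showed 50% or more at least once.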

All values are in %. How 0% and 100% were set is not recorded. Most values in the screen are low, and negative values occur. This is an unselected part of the compounds tested. A dash means the value is not listed here; it may have been measured.

{"compound": "O=C(Cc1ccccn1)N1CCN(C(=O)CC2CCCC2)CC1", "Mtb heat-shock": 2.073, "LdMetRS": 17.68}
{"compound": "CC(=O)NCC(=O)N1C[C@@H]2CC[C@H](Oc3ccccc3Cl)[C@@H]2C1", "LdMetRS": -1.13}
{"compound": "CC(=O)NCC(=O)N1Cc2cc(-c3cc[nH]n3)ccc2C1c1cnco1", "stereo": "stereo unspecified", "Mtb heat-shock": 2.285, "LdMetRS": 3.261, "Mtb growth Cornell": 1.937}
{"compound": "Cc1cc(COc2ccc(OC3CCCCNC3=O)cc2)on1", "stereo": "stereo unspecified", "Mtb heat-shock": -26.43, "LdMetRS": 16.57}
{"compound": "CNc1nc(C(=O)N2C[C@H]3CC[C@@H]2CN(C2CCOCC2)C3)cs1", "LdMetRS": 17.32}
{"compound": "COc1ccccc1CN1C[C@@H]2COC[C@]2(COc2cccnc2)C1", "LdMetRS": 17.37}
{"compound": "COCC(c1cccc(C(F)(F)F)c1)N(C)C(=O)c1cc(C)n[nH]1", "stereo": "stereo unspecified", "Mtb heat-shock": -11.85, "LdMetRS": 13.27}
{"compound": "CC(C)C(O)CNC(=O)Nc1cccc(-c2nccs2)c1", "stereo": "stereo unspecified", "Mtb heat-shock": 6.939, "LdMetRS": 18.86, "Mtb growth Cornell": 31.34}
{"compound": "CC(Cc1ccccc1Br)NC(=O)CCS(C)(=O)=O", "stereo": "stereo unspecified", "Mtb heat-shock": -12.53, "LdMetRS": 6.774, "Mtb growth Cornell": -25.51}
{"compound": "CN1CCN(S(=O)(=O)c2cccnc2)c2cnccc21", "Mtb heat-shock": -10.98, "LdMetRS": 17.99, "Mtb growth Cornell": 46.04}
{"compound": "Clc1cncc(NCc2cccc(COC3CCOCC3)c2)n1", "Mtb heat-shock": 9.753, "LdMetRS": 9.42, "Mtb growth Cornell": -4.155}
{"compound": "CCCc1cc(C(=O)NC2CCCCNC2=O)[nH]n1", "stereo": "stereo unspecified", "Mtb heat-shock": 11.86, "LdMetRS": 12.32, "Mtb growth Cornell": -24.38}
{"compound": "[H][C@]12CC[C@]([H])(CN(C3Cc4ccccc4C3)C1)N(C(=O)CCO)C2", "Mtb heat-shock": 16.91}
{"compound": "CN(Cc1ccsc1)C(=O)COC(=O)c1cc(Cl)c[nH]1", "Mtb heat-shock": -0.9816, "LdMetRS": 7.068, "Mtb growth Cornell": 26.17}
{"compound": "Cc1ccc(OCc2cccc(C(=O)N(C)C(C)CC#N)c2)cn1", "stereo": "stereo unspecified", "Mtb heat-shock": -9.787, "LdMetRS": 11.96, "Mtb growth Cornell": 8.903}
{"compound": "CCS(=O)(=O)NCCN(CCO)C1CCc2ccccc21", "stereo": "stereo unspecified", "Mtb heat-shock": -28.37, "LdMetRS": 10.78, "Mtb growth Cornell": -4.972}
{"compound": "CCCc1nn(Cc2csc(C(C)C)n2)c(=O)o1", "Mtb heat-shock": 30.72, "LdMetRS": 12.26, "Mtb growth Cornell": 16.37}
{"compound": "COCCN1CCO[C@H]2CCN(C(=O)c3ccnnc3)CC[C@@H]21", "LdMetRS": 13.04}
{"compound": "O=C(O)C(F)(F)F.[H][C@]12CN(Cc3cccs3)C[C@@]1([H])OCCN(S(=O)(=O)C1CC1)C2", "Mtb heat-shock": 1.471, "Mtb growth Cornell": 29.39}
{"compound": "CN(C)C(=O)CCCS(=O)(=O)Cc1cc(Cl)c2c(c1)OCO2", "Mtb heat-shock": -10.45, "LdMetRS": 11.45, "Mtb growth Cornell": 20.51}
{"compound": "Cc1nc(-c2ccco2)ccc1C(=O)N1CCn2c(C)nnc2C1", "Mtb heat-shock": -1.989, "LdMetRS": 20}
{"compound": "CCN(CC)C(=O)CNC(=O)N1CCC(c2ccccc2)C1", "stereo": "stereo unspecified", "Mtb heat-shock": -4.486, "LdMetRS": -3.553}
{"compound": "CSCC[C@H](NC(C)=O)C(=O)N(C)Cc1ccc(-n2cccn2)cc1", "Mtb heat-shock": -141.4, "LdMetRS": -0.3021}
{"compound": "CC(O)CN1CCC(CN(C)C(=O)NC2CC2)CC1", "stereo": "stereo unspecified", "Mtb heat-shock": -12.96, "LdMetRS": 11.63, "Mtb growth Cornell": 8.126}
{"compound": "[H][C@@]12CCCO[C@]1([H])[C@H](OCC1CC1)CN2C(=O)c1occc1C", "Mtb heat-shock": -16.42}
{"compound": "O=C(NCCN1CCCCCC1=O)c1ccc(=O)[nH]n1", "Mtb heat-shock": -2.782, "LdMetRS": 21.08}
{"compound": "Cn1cc2c(n1)C(CNC(=O)Cc1ccsc1)OCC2", "stereo": "stereo unspecified", "Mtb heat-shock": -11.54, "LdMetRS": 13.73, "Mtb growth Cornell": -14.18}
{"compound": "[H][C@@]12CCN(C(=O)COC)C[C@@]1([H])O[C@H](c1nnc(C3CC3)o1)C2", "Mtb heat-shock": 4.195, "Mtb growth Cornell": -43.59}
{"compound": "Cc1noc(Cl)c1CCC(=O)N1CCN(c2cnccn2)CC1", "Mtb heat-shock": 22.65, "LdMetRS": 12.57, "Mtb growth Cornell": -29.99}
{"compound": "Cc1nccn1CCC(=O)N1CCC2(CCC(=O)N(CC3CC3)C2)CC1", "Mtb heat-shock": 4.63, "LdMetRS": 17.48, "Mtb growth Cornell": 24.26}
{"compound": "O=C(Cc1c[nH]c(=O)[nH]c1=O)N1CCCCC1CCc1ccccc1", "stereo": "stereo unspecified", "Mtb heat-shock": -15.24, "LdMetRS": 5.775, "Mtb growth Cornell": 21.37}
{"compound": "Cc1n[nH]cc1CNCc1ccnc(OCC(F)(F)F)c1.Cl", "Mtb heat-shock": -19.81, "Mtb growth Cornell": 2.993}
{"compound": "Cn1nc(C(=O)N2CCCC(n3cncn3)C2)ccc1=O", "stereo": "stereo unspecified", "Mtb heat-shock": 16.41, "LdMetRS": 7.216, "Mtb growth Cornell": 1.397}
{"compound": "CCSc1ccc(C(=O)N2CCCCC2C(=O)N2CCCC2)cn1", "stereo": "stereo unspecified", "Mtb heat-shock": 0.635, "LdMetRS": 8.401, "Mtb growth Cornell": 2.851}
{"compound": "O=C(NCC1(CO)CC1)c1ccccc1F", "Mtb heat-shock": -24.35, "LdMetRS": 10.14, "Mtb growth Cornell": 12.31}
{"compound": "CCC(CC)(CNC(=O)OC(C)(C)C)NC(=O)C1CCOCC1", "Mtb heat-shock": 5.558, "LdMetRS": 16.15}
{"compound": "COCCN1CCCC(O)(CN2CCN(c3ccncc3C)CC2)C1=O", "stereo": "stereo unspecified", "Mtb heat-shock": 8.929, "LdMetRS": 12.64}
{"compound": "[H][C@]12CC[C@]([H])(CN(S(=O)(=O)c3cccnc3)C1)N(Cc1ccccc1)C2", "Mtb heat-shock": -12.97}

The first 2 entries again:

Compound	Mtb heat-shock	LdMetRS	Mtb growth Cornell
O=C(Cc1ccccn1)N1CCN(C(=O)CC2CCCC2)CC1	2.073	17.68	-
CC(=O)NCC(=O)N1C[C@@H]2CC[C@H](Oc3ccccc3Cl)[C@@H]2C1	-	-1.13	-

Source: ChEMBL document CHEMBL3988442, “University of Dundee, Small-Polar-MMV Screening Library” (2021).